Measured values published in patent US20250109209A1.
Numbering of substitutions follows the chain as printed. Results are given in words; binding and its absence hold for the method and conditions named. Some results given as binding are weak or reduced against the parent protein; the word gives no strength.

Protein sequences, listed by entry. Tags and fused reporters are not part of them. Lines headed by an entry give the natural chain unless they say otherwise; changes in a name come on top. Chains listed by the source or under a name are the forms on record and can include a tag or linker. Residues count along the entry.
Cyno TL1A (G7PRK8, form named): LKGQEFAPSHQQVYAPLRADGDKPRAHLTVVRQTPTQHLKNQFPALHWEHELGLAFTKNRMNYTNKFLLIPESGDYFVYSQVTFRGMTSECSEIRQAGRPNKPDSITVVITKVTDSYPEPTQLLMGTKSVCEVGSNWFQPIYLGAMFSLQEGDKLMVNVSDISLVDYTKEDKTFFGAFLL
UniProt O95150, residues 72-251: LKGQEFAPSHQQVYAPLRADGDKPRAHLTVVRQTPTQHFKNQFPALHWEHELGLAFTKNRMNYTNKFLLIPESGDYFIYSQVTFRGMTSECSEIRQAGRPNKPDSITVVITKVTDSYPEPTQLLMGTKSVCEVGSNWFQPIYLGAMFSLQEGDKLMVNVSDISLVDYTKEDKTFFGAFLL

B1: Antibody 86 (Fab format) (Fab, V domains shown)
VH: QVQLQESGPGLVRPSQTLSLTCTVSGFDIQDTYMHWVRQRPGRGLEWMGRIEPAGGHTKYNPSLKSRVTITRDTSKNQVSLRLSSVTAADTAVYYCASSGGMPDLWGQGSLVTVSS
VL: DIQMTQSPSSLSASVGDRVTITCRASSSVSYMYWYQQKPGKAPKLLIYGASNLASGVPSRFSGSGSGTDFTFTISSLQPEDIATYYCQQWEGNPRTFGQGTKVEIK
B2: Antibody 60 (Fab format) (Fab, V domains shown)
VH: B1 VH with Q30T, A97V, S98R, M102L, L105V
VL: B1 VL with G49A, A50T
B3: Antibody 12 (Fab format) (Fab, V domains shown)
VH: B1 VH with Q30T, A97V, S98R, M102L, L105V
VL: B1 VL with S27Q, S28G, S30E, G49S
B4: Antibody 4 (Fab format) (Fab, V domains shown)
VH: B1 VH with I29M, Q30A, A97V, S98R, M102L, L105M
VL: B1 VL
B5: Antibody 61 (Fab format) (Fab, V domains shown)
VH: B1 VH with G55S, S98A, L105M
VL: B1 VL with S27Q, S28G, S30E
B6: Antibody 5 (Fab format) (Fab, V domains shown)
VH: B1 VH with I29M, G55S, A97V, S98R, M102L, L105V
VL: B1 VL with S27Q, S28G, S30M
B7: Antibody 95 (Fab format) (Fab, V domains shown)
VH: B1 VH with Q30T, A97V, S98R, M102L, L105V
VL: B1 VL with S27Q, S28G, S30M
B8: Antibody 51 (Fab format) (Fab, V domains shown)
VH: B1 VH with A97V, S98R, M102L, L105A
VL: B1 VL with S27Q, S28G, S30E
B9: Antibody 64 (Fab format) (Fab, V domains shown)
VH: B1 VH with A97V, S98R, M102L, L105A
VL: B1 VL with S27Q, S28G, S30E, G49Y
B10: Antibody 19 (Fab format) (Fab, V domains shown)
VH: B1 VH with Q30T, A97V, S98R, M102L, L105V
VL: B1 VL with S27Q, S28G, S30E, G49Y
B11: Antibody 15 (Fab format) (Fab, V domains shown)
VH: B1 VH with A97V, S98R, M102L, L105A
VL: B1 VL with S27Q, S28G, V29I, S30Y
B12: Antibody 34 (Fab format) (Fab, V domains shown)
VH: B1 VH with F27L, I29P, Q30D, A97V, S98I, M102L, L105V
VL: B1 VL with S27Q, S28G, V29I, S30Y, G49A, A50T
B13: Antibody 18 (Fab format) (Fab, V domains shown)
VH: B1 VH with I29M, Q30G, A97V, S98R, L105V
VL: B1 VL with G49Y
B14: Antibody 42 (Fab format) (Fab, V domains shown)
VH: B1 VH with Q30T, A97V, S98R, M102L, L105V
VL: B1 VL with S27Q, S28G, S30G
B15: Antibody 59 (Fab format) (Fab, V domains shown)
VH: B1 VH with Q30T, A97V, S98R, M102L, L105V
VL: B1 VL
B16: Antibody 89 (Fab format) (Fab, V domains shown)
VH: B1 VH with G55S, S98A, L105M
VL: B1 VL
B17: Antibody 7 (Fab format) (Fab, V domains shown)
VH: B1 VH with I29M, Q30G, G55A, A97V, S98R, M102L, L105I
VL: B1 VL with S27Q, S28G, S30E
B18: Antibody 3 (Fab format) (Fab, V domains shown)
VH: B1 VH with A97V, S98R, M102L, L105A
VL: B1 VL with S27Q, S28G, S30R
B19: Antibody 100 (Fab format) (Fab, V domains shown)
VH: B1 VH with Q30T, A97V, S98R, M102L, L105V
VL: B1 VL with S27Q, S28G, S30E, G49A, A50T
B20: Antibody 6 (Fab format) (Fab, V domains shown)
VH: B1 VH with I29M, Q30A, A97V, S98R, M102L, L105M
VL: B1 VL with S27Q, S28G, S30E, G49S
B21: Antibody 13 (Fab format) (Fab, V domains shown)
VH: B1 VH with I29Y, E52D, G55S, S98V, L105V
VL: B1 VL with S27Q, S28G, S30E, G49A, A50T
B22: Antibody 41 (Fab format) (Fab, V domains shown)
VH: B1 VH with Q30T, A97V, S98R, M102L, L105V
VL: B1 VL with G49S
B23: Antibody 20 (Fab format) (Fab, V domains shown)
VH: B1 VH with G55S, S98R, L105M
VL: B1 VL with S27Q, S28G, S30M
B24: Antibody 1 (Fab format) (Fab, V domains shown)
VH: B1 VH
VL: B1 VL with S27Q, S28G, S30E
B25: Antibody 24 (Fab format) (Fab, V domains shown)
VH: B1 VH with A97V, S98R, M102L, L105A
VL: B1 VL with S27Q, S28G, S30G, G49A, A50T
B26: Antibody 96 (Fab format) (Fab, V domains shown)
VH: B1 VH with Q30T, A97V, S98R, M102L, L105V
VL: B1 VL with S27Q, S28G, S30G, G49A, A50T
B27: Antibody 73 (Fab format) (Fab, V domains shown)
VH: B1 VH with G55S, S98A, L105M
VL: B1 VL with S27Q, S28G, S30E, G49S
B28: Antibody 30 (Fab format) (Fab, V domains shown)
VH: B1 VH with A97V, S98R, M102L, L105A
VL: B1 VL with G49S
B29: Antibody 33 (Fab format) (Fab, V domains shown)
VH: B1 VH with A97V, S98R, M102L, L105A
VL: B1 VL with S27Q, S28G, S30E, G49A, A50T
B30: Antibody 10 (Fab format) (Fab, V domains shown)
VH: B1 VH with F27L, I29P, Q30D, A97V, S98I, M102L, L105V
VL: B1 VL with S27Q, S28G, S30E
B31: Antibody 16 (Fab format) (Fab, V domains shown)
VH: B1 VH with I29M, D31S, A97V, S98R, M102L, L105V
VL: B1 VL with S27Q, S28G, S30E
B32: Antibody 27 (Fab format) (Fab, V domains shown)
VH: B1 VH with A97V, S98R, M102L, L105A
VL: B1 VL with S27Q, S28G, S30R, G49A, A50T
B33: Antibody 39 (Fab format) (Fab, V domains shown)
VH: B1 VH with A97V, S98R, M102L, L105A
VL: B1 VL with G49A, A50T
B34: Antibody 79 (Fab format) (Fab, V domains shown)
VH: B1 VH with Q30E, G55S, S98I, M102V, L105V
VL: B1 VL
B35: Antibody 69 (Fab format) (Fab, V domains shown)
VH: B1 VH with A97V, S98R, M102L, L105A
VL: B1 VL with S27Q, S28G, V29I, S30Y, G49A, A50T
B36: Antibody 88 (Fab format) (Fab, V domains shown)
VH: B1 VH with I29L, M34I, E52D, G55S, T58V, S98R, P103T, L105Y
VL: B1 VL with S27F, S30D, L45D, G49A, A50T, T96S
B37: Antibody 53 (Fab format) (Fab, V domains shown)
VH: B1 VH with G55S, S98R, P103M, L105R
VL: B1 VL with S27Q, S28G, S30R
B38: Antibody 17 (Fab format) (Fab, V domains shown)
VH: B1 VH with I29M, Q30G, G55A, A97V, S98R, M102L, L105V
VL: B1 VL with S27Q, S28G, S30E
B39: Antibody 66 (Fab format) (Fab, V domains shown)
VH: B1 VH with A97V, S98R, M102L, L105A
VL: B1 VL with S27Q, S28G, S30E, G49S
B40: Antibody 94 (Fab format) (Fab, V domains shown)
VH: B1 VH with E52D, G55S, A97G, S98R, P103M
VL: B1 VL
B41: Antibody 9 (Fab format) (Fab, V domains shown)
VH: B1 VH with A97V, S98R, M102L, L105A
VL: B1 VL with S27Q, S28G, S30G, G49S
B42: Antibody 11 (Fab format) (Fab, V domains shown)
VH: B1 VH with I29M, Q30G, A97V, S98R, L105V
VL: B1 VL with S27Q, S28G, S30E, G49S
B43: Antibody 2 (Fab format) (Fab, V domains shown)
VH: B1 VH with F27L, I29P, Q30D, A97V, S98I, M102L, L105V
VL: B1 VL with G49A, A50T
B44: Antibody 45 (Fab format) (Fab, V domains shown)
VH: B1 VH with Q30E, G55S, S98I, M102V, L105V
VL: B1 VL with G49A, A50T
B45: Antibody 8 (Fab format) (Fab, V domains shown)
VH: B1 VH with I29M, D31S, A97V, S98R, M102L, L105V
VL: B1 VL

Each binder was assayed against Cyno TL1A (cyno) (UniProt G7PRK8) (assay: SPR, Fab format).

| binding | Binder |
| --- | --- |
| binds | B1 |
| binds | B2 |
| binds | B3 |
| binds | B4 |
| binds | B5 |
| binds | B6 |
| binds | B7 |
| binds | B8 |
| binds | B9 |
| binds | B10 |
| binds | B11 |
| binds | B12 |
| binds | B13 |
| binds | B14 |
| binds | B15 |
| binds | B16 |
| binds | B17 |
| binds | B18 |
| binds | B19 |
| binds | B20 |
| binds | B21 |
| binds | B22 |
| binds | B23 |

| binding | Binder |
| --- | --- |
| binds | B24 |
| binds | B25 |
| binds | B26 |
| binds | B27 |
| binds | B28 |
| binds | B29 |
| binds | B30 |
| binds | B31 |
| binds | B32 |
| binds | B33 |
| binds | B34 |
| binds | B35 |
| binds | B36 |
| binds | B37 |
| binds | B38 |
| binds | B39 |
| binds | B40 |
| binds | B41 |
| binds | B42 |
| binds | B43 |
| binds | B44 |
| binds | B45 |

The binders below were run against human TL1A (human) (UniProt O95150) (assay: SPR, Fab format).

| binding | Binder |
| --- | --- |
| binds | B1 |
| binds | B2 |
| binds | B5 |
| binds | B7 |
| binds | B9 |
| binds | B15 |
| binds | B16 |
| binds | B19 |
| binds | B26 |
| binds | B27 |
| binds | B34 |
| binds | B35 |
| binds | B36 |
| binds | B39 |
| binds | B40 |
